{"source": "the supplement of paper PMC8728848", "binders": {"B1": {"name": "Protectin (Homo sapiens), P13987 (protein)", "chain": "MGIQGGSVLFGLLLVLAVFCHSGHSLQCYNCPNPTADCKTAVNCSSDFDACLITKAGLQVYNKCWKFEHCNFNDVTTRLRENELTYYCCKKDLCNFNEQLENGGTSLSEKTVLLLVTPFLAAAWSLHP"}}, "assay_in_all_cases": "glycan array binding signal (z-score within array); higher = stronger binding", "settings_in_all_cases": "glycan notation: IUPAC condensed, linker removed", "key": {"Gal6S(b1-4)Glc6S": {"molecular_target": "Gal6S(b1-4)Glc6S", "method_in_brief": "(§1)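 Glycan array binding is given as a within-array Z-score, which can be read as non-binding when negative. The arrays, 3228 of them, came from the Consortium for Functional Glycomics database and were retained only where the protein sequence was available. Z-scores were averaged across arrays of the same protein sequence at different concentrations or buffers and across linkers.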"}, "Gal6S(b1-4)GlcNAc": {"molecular_target": "Gal6S(b1-4)GlcNAc", "method_in_brief": "as §1"}, "Gal6S(b1-4)GlcNAc6S": {"molecular_target": "Gal6S(b1-4)GlcNAc6S", "method_in_brief": "as §1"}, "GalNAc(a1-3)Gal": {"molecular_target": "GalNAc(a1-3)Gal", "method_in_brief": "as §1"}, "GalNAc(a1-3)GalNAc": {"molecular_target": "GalNAc(a1-3)GalNAc", "method_in_brief": "as §1"}, "[1]": {"molecular_target": "GalNAc(a1-3)GalNAc(a1-3)Gal(a1-4)Gal(b1-4)GlcNAc", "method_in_brief": "as §1"}, "[2]": {"molecular_target": "GalNAc(a1-3)GalNAc(b1-3)Gal(a1-4)Gal(b1-4)Glc", "method_in_brief": "as §1"}, "GalNAc(b1-3)Gal": {"molecular_target": "GalNAc(b1-3)Gal", "method_in_brief": "as §1"}, "[3]": {"molecular_target": "GalNAc(b1-3)Gal(a1-4)Gal(b1-4)GlcNAc", "method_in_brief": "as §1"}, "[4]": {"molecular_target": "GalNAc(b1-3)Gal(a1-4)Gal(b1-4)GlcNAc(b1-3)Gal(b1-4)Glc", "method_in_brief": "as §1"}, "[5]": {"molecular_target": "GalNAc(b1-3)Gal(a1-6)Gal(b1-4)Glc", "method_in_brief": "as §1"}, "GalNAc(b1-3)GalNAc": {"molecular_target": "GalNAc(b1-3)GalNAc", "method_in_brief": "as §1"}, "GalNAc(b1-4)Gal(b1-4)Glc": {"molecular_target": "GalNAc(b1-4)Gal(b1-4)Glc", "method_in_brief": "as §1"}, "GalNAc(b1-4)GlcNAc": {"molecular_target": "GalNAc(b1-4)GlcNAc", "method_in_brief": "as §1"}, "[6]": {"molecular_target": "GalNAc(b1-4)GlcNAc(b1-2)Man(a1-3)[GalNAc(b1-4)GlcNAc(b1-2)Man(a1-6)]Man(b1-4)GlcNAc(b1-4)GlcNAc", "method_in_brief": "as §1"}, "GalNAc(b1-6)GalNAc": {"molecular_target": "GalNAc(b1-6)GalNAc", "method_in_brief": "as §1"}, "Glc(a1-4)Glc": {"molecular_target": "Glc(a1-4)Glc", "method_in_brief": "as §1"}, "[7]": {"molecular_target": "Glc(a1-4)Glc(a1-4)Glc(a1-4)Glc", "method_in_brief": "as §1"}, "Glc(a1-6)Glc(a1-6)Glc": {"molecular_target": "Glc(a1-6)Glc(a1-6)Glc", "method_in_brief": "as §1"}, "[8]": {"molecular_target": "Glc(a1-6)Glc(a1-6)Glc(a1-6)Glc", "method_in_brief": "as §1"}, "Glc(b1-4)Glc": {"molecular_target": "Glc(b1-4)Glc", "method_in_brief": "as §1"}, "Glc(b1-6)Glc": {"molecular_target": "Glc(b1-6)Glc", "method_in_brief": "as §1"}, "GlcA(b1-3)Gal": {"molecular_target": "GlcA(b1-3)Gal", "method_in_brief": "as §1"}, "GlcA(b1-3)GlcNAc": {"molecular_target": "GlcA(b1-3)GlcNAc", "method_in_brief": "as §1"}, "GlcA(b1-6)Gal": {"molecular_target": "GlcA(b1-6)Gal", "method_in_brief": "as §1"}, "[9]": {"molecular_target": "GlcNAc(a1-3)Gal(b1-4)GlcNAc", "method_in_brief": "as §1"}, "[10]": {"molecular_target": "GlcNAc(a1-4)Gal(b1-3)GlcNAc", "method_in_brief": "as §1"}, "[11]": {"molecular_target": "GlcNAc(a1-4)Gal(b1-4)GalNAc", "method_in_brief": "as §1"}, "[12]": {"molecular_target": "GlcNAc(a1-4)Gal(b1-4)GlcNAc", "method_in_brief": "as §1"}, "[13]": {"molecular_target": "GlcNAc(a1-4)Gal(b1-4)GlcNAc(b1-3)Gal(b1-4)Glc", "method_in_brief": "as §1"}, "[14]": {"molecular_target": "GlcNAc(a1-4)Gal(b1-4)GlcNAc(b1-3)Gal(b1-4)GlcNAc", "method_in_brief": "as §1"}, "[15]": {"molecular_target": "GlcNAc(a1-4)Gal(b1-4)GlcNAc(b1-3)Gal(b1-4)GlcNAc(b1-3)Gal(b1-4)GlcNAc", "method_in_brief": "as §1"}, "[16]": {"molecular_target": "GlcNAc(a1-4)Gal(b1-4)GlcNAc(b1-3)Gal(b1-4)[Fuc(a1-3)]GlcNAc(b1-3)Gal(b1-4)[Fuc(a1-3)]GlcNAc", "method_in_brief": "as §1"}, "[17]": {"molecular_target": "GlcNAc(a1-6)Gal(b1-4)GlcNAc", "method_in_brief": "as §1"}, "[18]": {"molecular_target": "GlcNAc(b1-2)Gal(b1-3)GalNAc", "method_in_brief": "as §1"}, "[19]": {"molecular_target": "GlcNAc(b1-2)Man(a1-3)[GlcNAc(b1-2)Man(a1-6)]Man(b1-4)GlcNAc(b1-4)GlcNAc", "method_in_brief": "as §1"}, "[20]": {"molecular_target": "GlcNAc(b1-2)Man(a1-3)[GlcNAc(b1-2)Man(a1-6)]Man(b1-4)GlcNAc(b1-4)[Fuc(a1-6)]GlcNAc", "method_in_brief": "as §1"}, "[21]": {"molecular_target": "GlcNAc(b1-2)Man(a1-3)[GlcNAc(b1-4)][GlcNAc(b1-2)Man(a1-6)]Man(b1-4)GlcNAc(b1-4)GlcNAc", "method_in_brief": "as §1"}, "[22]": {"molecular_target": "GlcNAc(b1-2)[GlcNAc(b1-4)]Man(a1-3)[GlcNAc(b1-2)Man(a1-6)]Man(b1-4)GlcNAc(b1-4)GlcNAc", "method_in_brief": "as §1"}, "[23]": {"molecular_target": "GlcNAc(b1-2)[GlcNAc(b1-4)]Man(a1-3)[GlcNAc(b1-4)][GlcNAc(b1-2)Man(a1-6)]Man(b1-4)GlcNAc(b1-4)GlcNAc", "method_in_brief": "as §1"}, "[24]": {"molecular_target": "GlcNAc(b1-2)[GlcNAc(b1-4)]Man(a1-3)[GlcNAc(b1-4)][GlcNAc(b1-2)[GlcNAc(b1-6)]Man(a1-6)]Man(b1-4)GlcNAc(b1-4)GlcNAc", "method_in_brief": "as §1"}, "[25]": {"molecular_target": "GlcNAc(b1-2)[GlcNAc(b1-6)]Man(a1-6)[GlcNAc(b1-2)Man(a1-3)]Man(b1-4)GlcNAc(b1-4)GlcNAc", "method_in_brief": "as §1"}, "[26]": {"molecular_target": "GlcNAc(b1-2)[GlcNAc(b1-6)]Man(a1-6)[GlcNAc(b1-2)Man(a1-3)][GlcNAc(b1-4)]Man(b1-4)GlcNAc(b1-4)GlcNAc", "method_in_brief": "as §1"}, "GlcNAc(b1-3)Gal": {"molecular_target": "GlcNAc(b1-3)Gal", "method_in_brief": "as §1"}, "[27]": {"molecular_target": "GlcNAc(b1-3)Gal(b1-3)GalNAc", "method_in_brief": "as §1"}}, "note": "The list shows a part of the results.", "data": [{"binder": "B1", "values": [{"measurement": "glycan array binding signal (z-score)", "setting": "Gal6S(b1-4)Glc6S", "result": -0.413}, {"measurement": "glycan array binding signal (z-score)", "setting": "Gal6S(b1-4)GlcNAc", "result": -1.7}, {"measurement": "glycan array binding signal (z-score)", "setting": "Gal6S(b1-4)GlcNAc6S", "result": 0.08}, {"measurement": "glycan array binding signal (z-score)", "setting": "GalNAc(a1-3)Gal", "result": -0.944}, {"measurement": "glycan array binding signal (z-score)", "setting": "GalNAc(a1-3)GalNAc", "result": -2.03}, {"measurement": "glycan array binding signal (z-score)", "setting": "[1]", "result": -0.351}, {"measurement": "glycan array binding signal (z-score)", "setting": "[2]", "result": 1.35}, {"measurement": "glycan array binding signal (z-score)", "setting": "GalNAc(b1-3)Gal", "result": -1.36}, {"measurement": "glycan array binding signal (z-score)", "setting": "[3]", "result": -0.395}, {"measurement": "glycan array binding signal (z-score)", "setting": "[4]", "result": -0.122}, {"measurement": "glycan array binding signal (z-score)", "setting": "[5]", "result": 1.77}, {"measurement": "glycan array binding signal (z-score)", "setting": "GalNAc(b1-3)GalNAc", "result": -0.822}, {"measurement": "glycan array binding signal (z-score)", "setting": "GalNAc(b1-4)Gal(b1-4)Glc", "result": 2.18}, {"measurement": "glycan array binding signal (z-score)", "setting": "GalNAc(b1-4)GlcNAc", "result": -0.146}, {"measurement": "glycan array binding signal (z-score)", "setting": "[6]", "result": 2.58}, {"measurement": "glycan array binding signal (z-score)", "setting": "GalNAc(b1-6)GalNAc", "result": -0.397}, {"measurement": "glycan array binding signal (z-score)", "setting": "Glc(a1-4)Glc", "result": -0.2}, {"measurement": "glycan array binding signal (z-score)", "setting": "[7]", "result": 0.17}, {"measurement": "glycan array binding signal (z-score)", "setting": "Glc(a1-6)Glc(a1-6)Glc", "result": -0.12}, {"measurement": "glycan array binding signal (z-score)", "setting": "[8]", "result": -2.07}, {"measurement": "glycan array binding signal (z-score)", "setting": "Glc(b1-4)Glc", "result": -0.516}, {"measurement": "glycan array binding signal (z-score)", "setting": "Glc(b1-6)Glc", "result": -0.906}, {"measurement": "glycan array binding signal (z-score)", "setting": "GlcA(b1-3)Gal", "result": -0.258}, {"measurement": "glycan array binding signal (z-score)", "setting": "GlcA(b1-3)GlcNAc", "result": 0.253}, {"measurement": "glycan array binding signal (z-score)", "setting": "GlcA(b1-6)Gal", "result": -0.432}, {"measurement": "glycan array binding signal (z-score)", "setting": "[9]", "result": -0.315}, {"measurement": "glycan array binding signal (z-score)", "setting": "[10]", "result": 0.293}, {"measurement": "glycan array binding signal (z-score)", "setting": "[11]", "result": -0.029}, {"measurement": "glycan array binding signal (z-score)", "setting": "[12]", "result": -1.51}, {"measurement": "glycan array binding signal (z-score)", "setting": "[13]", "result": -1.29}, {"measurement": "glycan array binding signal (z-score)", "setting": "[14]", "result": 0.746}, {"measurement": "glycan array binding signal (z-score)", "setting": "[15]", "result": 0.914}, {"measurement": "glycan array binding signal (z-score)", "setting": "[16]", "result": 6.43}, {"measurement": "glycan array binding signal (z-score)", "setting": "[17]", "result": -0.166}, {"measurement": "glycan array binding signal (z-score)", "setting": "[18]", "result": -0.869}, {"measurement": "glycan array binding signal (z-score)", "setting": "[19]", "result": 0.255}, {"measurement": "glycan array binding signal (z-score)", "setting": "[20]", "result": 2.37}, {"measurement": "glycan array binding signal (z-score)", "setting": "[21]", "result": 0.043}, {"measurement": "glycan array binding signal (z-score)", "setting": "[22]", "result": -0.787}, {"measurement": "glycan array binding signal (z-score)", "setting": "[23]", "result": 1.04}, {"measurement": "glycan array binding signal (z-score)", "setting": "[24]", "result": 0.781}, {"measurement": "glycan array binding signal (z-score)", "setting": "[25]", "result": -0.347}, {"measurement": "glycan array binding signal (z-score)", "setting": "[26]", "result": -0.097}, {"measurement": "glycan array binding signal (z-score)", "setting": "GlcNAc(b1-3)Gal", "result": -0.385}, {"measurement": "glycan array binding signal (z-score)", "setting": "[27]", "result": 0.142}]}]}
